# Measurements from doi:10.1101/2024.06.25.600625.
# These are yes or no findings as the source states them, for the method shown. Some binding calls cover weakened binding; strength is not graded here.
# Target: N-terminally FlAsH-labeled Aha1 (UniProt O95433)
# Test: fluorescence polarisation
row,Substance,binding
1,human Hsp90α Y38E (from UniProt P07900 1-732),binds
2,"human Hsp90α Y38E,Y61F,Y197E (from UniProt P07900 1-732)",binds
3,human Hsp90α Y38F (from UniProt P07900 1-732),binds
4,"human Hsp90α Y38F,Y61E,Y197E (from UniProt P07900 1-732)",binds
5,"human Hsp90α Y38F,Y61F,Y197E (from UniProt P07900 1-732)",binds
6,"human Hsp90α Y38F,Y61F,Y197F (from UniProt P07900 1-732)",binds
7,human Hsp90α Y61E (from UniProt P07900 1-732),binds
8,human Hsp90α Y61F (from UniProt P07900 1-732),binds
9,human Hsp90α Y197E (from UniProt P07900 1-732),binds
10,human Hsp90α Y197F (from UniProt P07900 1-732),binds
11,wild-type human Hsp90α (from UniProt P07900 1-732),binds

# Target: wild-type human Hsp90α (human) (UniProt P07900)
# Test: fluorescence polarisation
row,Substance,binding
1,unlabeled Aha1 (from UniProt O95433 1-338),binds
